For at least one entry, the source does not settle the construct or the ends of the probe. The direction of at least one scale is not stated here.
Biological target: AtPHR1 MYB-CC Olig1 L319N,I333N,L337N (Arabidopsis thaliana) (UniProt Q94CL7)
Assay: GCI
Settings: 4 C, 300 mM NaCl; GCI at 4 C: AtPHR1 in 20 mM HEPES pH 7.5, 300 mM NaCl; OsPHR2 in 20 mM HEPES pH 7.9, 200 mM NaCl; recombinant protein; residues 222-358; protein details: His6 N-terminal, TEV-cleaved; label: 5'-biotin on strand 1

Sequences of proteins named here, by UniProt entry; tags and fusion partners are left off. Residues count along the entry.
UniProt Q94CL7, 222-358 L319N/I333N/L337N: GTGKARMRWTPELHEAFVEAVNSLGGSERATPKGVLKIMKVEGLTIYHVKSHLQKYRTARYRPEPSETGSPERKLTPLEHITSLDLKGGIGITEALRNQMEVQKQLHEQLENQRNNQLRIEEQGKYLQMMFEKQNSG

CAGAGAAAAAAGGATATTCTAATTAGAAACCTTAAGAATATTCTTTTTAATCCC (double strand) [pAtSPX1 biotin]
binding signal (fold reduced affinity vs wild type): 20

Source: PMC7810988, “Inositol pyrophosphates promote the interaction of SPX domains with the coiled-coil motif of PHR transcription factors to regulate plant phosphate homeostasis” (Nature Communications, 2021)
